Measurements: publication doi:10.1101/2022.03.27.485962
No constants are given. Whether binding was seen depends on the method and setting. In cells and extracts the contact can be indirect. A result given as binding can be weak or reduced; the word gives no strength. Tags and fused reporters may be left off the sequences shown.

Target: T1, BcsD with a hexa-histidine tag attached to the C-terminus (Komagataeibacter sucrofermentans JCM9730 (BPR2001)) (UniProt P0DTX1)
T1 sequence: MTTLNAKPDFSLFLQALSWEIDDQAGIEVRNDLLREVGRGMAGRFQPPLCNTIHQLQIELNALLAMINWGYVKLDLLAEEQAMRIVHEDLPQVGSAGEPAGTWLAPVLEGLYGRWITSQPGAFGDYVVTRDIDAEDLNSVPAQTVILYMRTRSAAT
Assay: pull-down

Row | Substance | binding
1 | BcsAB complex with the activity-deficient mutation D333N on BcsA | binds
2 | BcsAB complex with the activity-deficient mutation W373A on BcsA | binds
